This note sets out measurements from patent US8415391B2, “3.2.1-bicyclo-octene and -octane compounds” (International Flavors & Fragrances Inc., priority 2010, dated 2013).

A short description of this data set: Odor description (fragrance notes).

Take `CC1=CCC2(C)CCC1C2` (stereo not drawn) [Structure I, 2,5-dimethyl-bicyclo[3.2.1]oct-2-ene]: the “Odor notes as described” value was “green, terpineol, woody, and black pepper notes”.
On to `CC1C(=O)CC2(C)CCC1C2` (stereo not drawn) [1,4-Dimethyl-bicyclo[3.2.1]octan-3-one], for which the “Odor notes as described” value was “woody, fresh, minty, and menthol notes”.
With `COC(=O)OC1CC2(C)CCC(C2)C1C` (stereo not drawn) [Structure V, carbonic acid 1,4-dimethyl-bicyclo[3.2.1]oct-3-yl ester methyl ester], the “Odor notes as described” value was “fruity and green notes”.
As for `CC12CCC(C1)C1(C)OC1C2` (stereo not drawn) [2,6-Dimethyl-3-oxa-tricyclo[4.2.1.0*2,4*]nonane], the “Odor notes as described” value was “camphor, woody, fresh, sweet, minty, and thujone-like notes”.
Consider `CC(=O)OC1CC2(C)CCC(C2)C1C` (stereo not drawn) [Structure IV, acetic acid 1,4-dimethyl-bicyclo[3.2.1]oct-3-yl ester], for which the “Odor notes as described” value is “fruity, woody, and fresh notes”.
For the compound `C=CCOC1CC2(C)CCC(C2)C1C` (stereo not drawn) [Structure VI, 3-allyloxy-1,4-dimethyl-bicyclo[3.2.1]octane], the “Odor notes as described” value is “fruity, green, dirty, harsh, metallic, slight woody, camphor, juicy, acetophenone-like, and fenchol-like notes”.
